Data published in the supplement of paper PMC9233669.
Variants at the floor of the assay are shown more often than the library holds them.

Tests used:
biotinyl-Trp-oxazolone = experiment: self-aminoacylation, catalytic enhancement (BWO) (fold over background); higher = more active; k-Seq, kA / k0A0; sequences stand for … in GGGAAUGGAUCCACAUCUACGAAUUC…UUCACUGCAGACUUGACGAAGCUG
Method in brief: (§1)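 Working in 50 μL HEPES/NaCl/KCl/MgCl2/CaCl2 buffer with 5% acetonitrile at pH 6.9–7.0, mutagenized RNA pools (0.43 μM; 21-nt variable region) were reacted with 2–1250 μM of each biotinyl-aminoacyl-oxazolone for 90 minutes at room temperature. Streptavidin capture followed, with quantification by triplicate qPCR and Illumina sequencing. Catalytic enhancement is reported as median kA over the uncatalyzed rate, the low-activity peak of a bimodal Gaussian fit to the data.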

biotinyl-Phe-oxazolone = experiment: self-aminoacylation, catalytic enhancement (BFO) (fold over background); higher = more active; k-Seq, kA / k0A0; sequences stand for … in GGGAAUGGAUCCACAUCUACGAAUUC…UUCACUGCAGACUUGACGAAGCUG
Method in brief: as §1

biotinyl-Ile-oxazolone = experiment: self-aminoacylation, catalytic enhancement (BIO) (fold over background); higher = more active; k-Seq, kA / k0A0; sequences stand for … in GGGAAUGGAUCCACAUCUACGAAUUC…UUCACUGCAGACUUGACGAAGCUG
Method in brief: as §1

biotinyl-Val-oxazolone = experiment: self-aminoacylation, catalytic enhancement (BVO) (fold over background); higher = more active; k-Seq, kA / k0A0; sequences stand for … in GGGAAUGGAUCCACAUCUACGAAUUC…UUCACUGCAGACUUGACGAAGCUG
Method in brief: as §1

biotinyl-Leu-oxazolone = experiment: self-aminoacylation, catalytic enhancement (BLO) (fold over background); higher = more active; k-Seq, kA / k0A0; sequences stand for … in GGGAAUGGAUCCACAUCUACGAAUUC…UUCACUGCAGACUUGACGAAGCUG
Method in brief: as §1

biotinyl-Met-oxazolone = experiment: self-aminoacylation, catalytic enhancement (BMO) (fold over background); higher = more active; k-Seq, kA / k0A0; sequences stand for … in GGGAAUGGAUCCACAUCUACGAAUUC…UUCACUGCAGACUUGACGAAGCUG
Method in brief: as §1

Sequence: CUACUUCAUACAAUCGGUUUG [Fam1A.1 aminoacylation ribozyme variant]
- self-aminoacylation (biotinyl-Trp-oxazolone): 0.425
- self-aminoacylation (biotinyl-Phe-oxazolone): 0.619
- self-aminoacylation (biotinyl-Ile-oxazolone): 0.64
- self-aminoacylation (biotinyl-Val-oxazolone): 0.541
- self-aminoacylation (biotinyl-Leu-oxazolone): 0.602
- self-aminoacylation (biotinyl-Met-oxazolone): 0.538

Sequence: CUACUUCAUGCAAUCGGUCUG [Fam1A.1 aminoacylation ribozyme variant]
- self-aminoacylation (biotinyl-Trp-oxazolone): 0.712
- self-aminoacylation (biotinyl-Phe-oxazolone): 1.11
- self-aminoacylation (biotinyl-Ile-oxazolone): 0.803
- self-aminoacylation (biotinyl-Val-oxazolone): 0.873
- self-aminoacylation (biotinyl-Leu-oxazolone): 0.804
- self-aminoacylation (biotinyl-Met-oxazolone): 0.765

Sequence: CUACUUCAUUCAAUCGGUCUG [Fam1A.1 aminoacylation ribozyme variant]
- self-aminoacylation (biotinyl-Trp-oxazolone): 0.475
- self-aminoacylation (biotinyl-Phe-oxazolone): 0.781
- self-aminoacylation (biotinyl-Ile-oxazolone): 0.654
- self-aminoacylation (biotinyl-Val-oxazolone): 0.626
- self-aminoacylation (biotinyl-Leu-oxazolone): 0.609
- self-aminoacylation (biotinyl-Met-oxazolone): 0.775

Sequence: CUACUUCCAACAAUUGGUCUG [Fam1A.1 aminoacylation ribozyme variant]
- self-aminoacylation (biotinyl-Trp-oxazolone): 0.536
- self-aminoacylation (biotinyl-Phe-oxazolone): 0.55
- self-aminoacylation (biotinyl-Ile-oxazolone): 0.817
- self-aminoacylation (biotinyl-Val-oxazolone): 0.839
- self-aminoacylation (biotinyl-Leu-oxazolone): 0.776
- self-aminoacylation (biotinyl-Met-oxazolone): 0.718

Sequence: CUACUUCGAACAAUCAGUCUG [Fam1A.1 aminoacylation ribozyme variant]
- self-aminoacylation (biotinyl-Trp-oxazolone): 0.331
- self-aminoacylation (biotinyl-Phe-oxazolone): 0.545
- self-aminoacylation (biotinyl-Ile-oxazolone): 0.562
- self-aminoacylation (biotinyl-Val-oxazolone): 0.453
- self-aminoacylation (biotinyl-Leu-oxazolone): 0.464
- self-aminoacylation (biotinyl-Met-oxazolone): 0.476

Sequence: CUACUUCGAACAAUCGGUCUU [Fam1A.1 aminoacylation ribozyme variant]
- self-aminoacylation (biotinyl-Trp-oxazolone): 0.466
- self-aminoacylation (biotinyl-Phe-oxazolone): 0.723
- self-aminoacylation (biotinyl-Ile-oxazolone): 0.937
- self-aminoacylation (biotinyl-Val-oxazolone): 0.856
- self-aminoacylation (biotinyl-Leu-oxazolone): 1.02
- self-aminoacylation (biotinyl-Met-oxazolone): 0.938

Sequence: CUACUUCGAACACUCGGUCUG [Fam1A.1 aminoacylation ribozyme variant]
- self-aminoacylation (biotinyl-Trp-oxazolone): 1
- self-aminoacylation (biotinyl-Phe-oxazolone): 3.18
- self-aminoacylation (biotinyl-Ile-oxazolone): 1.02
- self-aminoacylation (biotinyl-Val-oxazolone): 1.18
- self-aminoacylation (biotinyl-Leu-oxazolone): 1.32
- self-aminoacylation (biotinyl-Met-oxazolone): 1.04

Sequence: CUACUUCUAACAAUCGGUCUA [Fam1A.1 aminoacylation ribozyme variant]
- self-aminoacylation (biotinyl-Trp-oxazolone): 0.461
- self-aminoacylation (biotinyl-Phe-oxazolone): 0.937
- self-aminoacylation (biotinyl-Ile-oxazolone): 0.732
- self-aminoacylation (biotinyl-Val-oxazolone): 0.752
- self-aminoacylation (biotinyl-Leu-oxazolone): 0.692
- self-aminoacylation (biotinyl-Met-oxazolone): 0.725

Sequence: CUACUUCUAACAAUCGGUUUG [Fam1A.1 aminoacylation ribozyme variant]
- self-aminoacylation (biotinyl-Trp-oxazolone): 0.466
- self-aminoacylation (biotinyl-Phe-oxazolone): 0.679
- self-aminoacylation (biotinyl-Ile-oxazolone): 0.513
- self-aminoacylation (biotinyl-Val-oxazolone): 0.598
- self-aminoacylation (biotinyl-Leu-oxazolone): 0.469
- self-aminoacylation (biotinyl-Met-oxazolone): 0.564

Sequence: CUACUUCUAACAAUCUGUCUG [Fam1A.1 aminoacylation ribozyme variant]
- self-aminoacylation (biotinyl-Trp-oxazolone): 0.482
- self-aminoacylation (biotinyl-Phe-oxazolone): 0.716
- self-aminoacylation (biotinyl-Ile-oxazolone): 0.693
- self-aminoacylation (biotinyl-Val-oxazolone): 0.634
- self-aminoacylation (biotinyl-Leu-oxazolone): 0.615
- self-aminoacylation (biotinyl-Met-oxazolone): 0.58

Sequence: CUACUUCUAAGAAUCGGUCUG [Fam1A.1 aminoacylation ribozyme variant]
- self-aminoacylation (biotinyl-Trp-oxazolone): 0.558
- self-aminoacylation (biotinyl-Phe-oxazolone): 0.516
- self-aminoacylation (biotinyl-Ile-oxazolone): 0.696
- self-aminoacylation (biotinyl-Val-oxazolone): 0.743
- self-aminoacylation (biotinyl-Leu-oxazolone): 0.664
- self-aminoacylation (biotinyl-Met-oxazolone): 0.804

Sequence: CUACUUUAAACAAUCAGUCUG [Fam1A.1 aminoacylation ribozyme variant]
- self-aminoacylation (biotinyl-Trp-oxazolone): 0.671
- self-aminoacylation (biotinyl-Phe-oxazolone): 1.16
- self-aminoacylation (biotinyl-Ile-oxazolone): 0.863
- self-aminoacylation (biotinyl-Val-oxazolone): 0.868
- self-aminoacylation (biotinyl-Leu-oxazolone): 0.764
- self-aminoacylation (biotinyl-Met-oxazolone): 0.798

Sequence: CUACUUUAAACAAUCGGUAUG [Fam1A.1 aminoacylation ribozyme variant]
- self-aminoacylation (biotinyl-Trp-oxazolone): 0.463
- self-aminoacylation (biotinyl-Phe-oxazolone): 0.659
- self-aminoacylation (biotinyl-Ile-oxazolone): 0.692
- self-aminoacylation (biotinyl-Val-oxazolone): 0.558
- self-aminoacylation (biotinyl-Leu-oxazolone): 0.595
- self-aminoacylation (biotinyl-Met-oxazolone): 0.887

Sequence: CUACUUUAAAGAAUCGGUCUG [Fam1A.1 aminoacylation ribozyme variant]
- self-aminoacylation (biotinyl-Trp-oxazolone): 0.705
- self-aminoacylation (biotinyl-Phe-oxazolone): 0.762
- self-aminoacylation (biotinyl-Ile-oxazolone): 0.827
- self-aminoacylation (biotinyl-Val-oxazolone): 0.822
- self-aminoacylation (biotinyl-Leu-oxazolone): 0.793
- self-aminoacylation (biotinyl-Met-oxazolone): 0.871

Sequence: CUAGUUCAAACAAUCGAUCUG [Fam1A.1 aminoacylation ribozyme variant]
- self-aminoacylation (biotinyl-Trp-oxazolone): 0.622
- self-aminoacylation (biotinyl-Phe-oxazolone): 0.99
- self-aminoacylation (biotinyl-Ile-oxazolone): 0.752
- self-aminoacylation (biotinyl-Val-oxazolone): 0.663
- self-aminoacylation (biotinyl-Leu-oxazolone): 0.641
- self-aminoacylation (biotinyl-Met-oxazolone): 0.619

Sequence: CUAGUUCAAACAAUCGUUCUG [Fam1A.1 aminoacylation ribozyme variant]
- self-aminoacylation (biotinyl-Trp-oxazolone): 0.588
- self-aminoacylation (biotinyl-Phe-oxazolone): 0.779
- self-aminoacylation (biotinyl-Ile-oxazolone): 0.747
- self-aminoacylation (biotinyl-Val-oxazolone): 0.628
- self-aminoacylation (biotinyl-Leu-oxazolone): 0.625
- self-aminoacylation (biotinyl-Met-oxazolone): 0.643

Sequence: CUAGUUCAAACAAUUGGUCUG [Fam1A.1 aminoacylation ribozyme variant]
- self-aminoacylation (biotinyl-Trp-oxazolone): 0.633
- self-aminoacylation (biotinyl-Phe-oxazolone): 1.01
- self-aminoacylation (biotinyl-Ile-oxazolone): 1.08
- self-aminoacylation (biotinyl-Val-oxazolone): 0.902
- self-aminoacylation (biotinyl-Leu-oxazolone): 0.89
- self-aminoacylation (biotinyl-Met-oxazolone): 1.09

Sequence: CUAUGUCAAACAAUCGGUCUG [Fam1A.1 aminoacylation ribozyme variant]
- self-aminoacylation (biotinyl-Trp-oxazolone): 1.05
- self-aminoacylation (biotinyl-Phe-oxazolone): 1.09
- self-aminoacylation (biotinyl-Ile-oxazolone): 0.914
- self-aminoacylation (biotinyl-Val-oxazolone): 0.988
- self-aminoacylation (biotinyl-Leu-oxazolone): 0.942
- self-aminoacylation (biotinyl-Met-oxazolone): 0.887

Sequence: CUAUUUCAAAAAAUCGGUCUG [Fam1A.1 aminoacylation ribozyme variant]
- self-aminoacylation (biotinyl-Trp-oxazolone): 1.73
- self-aminoacylation (biotinyl-Phe-oxazolone): 2.31
- self-aminoacylation (biotinyl-Ile-oxazolone): 1.13
- self-aminoacylation (biotinyl-Val-oxazolone): 0.85
- self-aminoacylation (biotinyl-Leu-oxazolone): 1.18
- self-aminoacylation (biotinyl-Met-oxazolone): 1

Sequence: CUAUUUCAAACAAUCCGUCUG [Fam1A.1 aminoacylation ribozyme variant]
- self-aminoacylation (biotinyl-Trp-oxazolone): 0.595
- self-aminoacylation (biotinyl-Phe-oxazolone): 0.946
- self-aminoacylation (biotinyl-Ile-oxazolone): 0.826
- self-aminoacylation (biotinyl-Val-oxazolone): 0.735
- self-aminoacylation (biotinyl-Leu-oxazolone): 0.715
- self-aminoacylation (biotinyl-Met-oxazolone): 0.818

Sequence: CUAUUUCAAACAAUGGGUCUG [Fam1A.1 aminoacylation ribozyme variant]
- self-aminoacylation (biotinyl-Trp-oxazolone): 0.802
- self-aminoacylation (biotinyl-Phe-oxazolone): 0.641
- self-aminoacylation (biotinyl-Ile-oxazolone): 0.924
- self-aminoacylation (biotinyl-Val-oxazolone): 0.81
- self-aminoacylation (biotinyl-Leu-oxazolone): 0.863
- self-aminoacylation (biotinyl-Met-oxazolone): 0.836

Sequence: CUAUUUCAAACAAUUGGUCUG [Fam1A.1 aminoacylation ribozyme variant]
- self-aminoacylation (biotinyl-Trp-oxazolone): 0.736
- self-aminoacylation (biotinyl-Phe-oxazolone): 0.87
- self-aminoacylation (biotinyl-Ile-oxazolone): 1.01
- self-aminoacylation (biotinyl-Val-oxazolone): 0.873
- self-aminoacylation (biotinyl-Leu-oxazolone): 0.929
- self-aminoacylation (biotinyl-Met-oxazolone): 0.994

Sequence: CUAUUUCAAACUAUCGGUCUG [Fam1A.1 aminoacylation ribozyme variant]
- self-aminoacylation (biotinyl-Trp-oxazolone): 0.994
- self-aminoacylation (biotinyl-Phe-oxazolone): 1.31
- self-aminoacylation (biotinyl-Ile-oxazolone): 1.23
- self-aminoacylation (biotinyl-Val-oxazolone): 1.02
- self-aminoacylation (biotinyl-Leu-oxazolone): 0.866
- self-aminoacylation (biotinyl-Met-oxazolone): 1.04

Sequence: CUAUUUCAAAUAAUCGGUCUG [Fam1A.1 aminoacylation ribozyme variant]
- self-aminoacylation (biotinyl-Trp-oxazolone): 2.2
- self-aminoacylation (biotinyl-Phe-oxazolone): 3.5
- self-aminoacylation (biotinyl-Ile-oxazolone): 0.912
- self-aminoacylation (biotinyl-Val-oxazolone): 0.816
- self-aminoacylation (biotinyl-Leu-oxazolone): 0.814
- self-aminoacylation (biotinyl-Met-oxazolone): 0.849

Sequence: CUAUUUCCAACAAUCGGUCUG [Fam1A.1 aminoacylation ribozyme variant]
- self-aminoacylation (biotinyl-Trp-oxazolone): 0.621
- self-aminoacylation (biotinyl-Phe-oxazolone): 0.709
- self-aminoacylation (biotinyl-Ile-oxazolone): 0.893
- self-aminoacylation (biotinyl-Val-oxazolone): 0.743
- self-aminoacylation (biotinyl-Leu-oxazolone): 0.865
- self-aminoacylation (biotinyl-Met-oxazolone): 0.821

Sequence: CUCCUUCAAACAAUCGGGCUG [Fam1A.1 aminoacylation ribozyme variant]
- self-aminoacylation (biotinyl-Trp-oxazolone): 14.4
- self-aminoacylation (biotinyl-Phe-oxazolone): 15.1
- self-aminoacylation (biotinyl-Ile-oxazolone): 1.51
- self-aminoacylation (biotinyl-Val-oxazolone): 1.84
- self-aminoacylation (biotinyl-Leu-oxazolone): 1.98
- self-aminoacylation (biotinyl-Met-oxazolone): 1.53
